One data set has as its system HepG2/C3A cells. To be noted: for oxygen uptake, % of normal respiration: 24 hrs exposure.
Data set [1] deals with primary human hepatocytes. As to conditions: read-out: TC50 in primary hepatocytes; cited from earlier work.
The next data set is described as follows: in vitro. As to conditions: human.

Like-named read-outs stand apart in the source and are kept apart here.

Consider `CCCCc1oc2ccccc2c1C(=O)c1cc(I)c(OCCN(CC)CC)c(I)c1` [amiodarone], for which the results for the “oxygen uptake, % of normal respiration” value with HepG2/C3A cells (200 μM amiodarone), with HepG2/C3A cells (500 μM amiodarone) and in the data set with HepG2/C3A cells (1000 μM amiodarone) were 84%, 42% and 0%, respectively. In the data set on HepG2/C3A cells (human, 24 h), this compound had a TC50 of 0.000425 µM. Besides, in data set [1], the CC50 is 100 µM. The same compound displayed a CC50 at 24 h in “in vitro” of 425 µM.
